From paper PMC9238189

Sequences of proteins named here, by UniProt entry; tags and fusion partners are left off.
UniProt Q60598: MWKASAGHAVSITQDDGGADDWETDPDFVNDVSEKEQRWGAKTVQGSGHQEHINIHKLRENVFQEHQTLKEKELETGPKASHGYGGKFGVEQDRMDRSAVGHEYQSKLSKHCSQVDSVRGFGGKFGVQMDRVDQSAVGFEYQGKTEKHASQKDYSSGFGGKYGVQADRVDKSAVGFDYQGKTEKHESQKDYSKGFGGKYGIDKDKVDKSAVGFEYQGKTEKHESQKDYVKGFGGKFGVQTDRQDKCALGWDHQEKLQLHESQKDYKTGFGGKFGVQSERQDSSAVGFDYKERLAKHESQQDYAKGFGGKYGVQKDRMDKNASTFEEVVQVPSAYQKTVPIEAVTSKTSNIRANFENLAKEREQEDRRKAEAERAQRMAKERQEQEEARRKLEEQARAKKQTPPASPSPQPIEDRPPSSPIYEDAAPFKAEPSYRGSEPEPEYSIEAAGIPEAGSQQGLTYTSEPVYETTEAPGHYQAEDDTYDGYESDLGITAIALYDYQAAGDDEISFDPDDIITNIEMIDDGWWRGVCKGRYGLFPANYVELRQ
UniProt Q9JKF1: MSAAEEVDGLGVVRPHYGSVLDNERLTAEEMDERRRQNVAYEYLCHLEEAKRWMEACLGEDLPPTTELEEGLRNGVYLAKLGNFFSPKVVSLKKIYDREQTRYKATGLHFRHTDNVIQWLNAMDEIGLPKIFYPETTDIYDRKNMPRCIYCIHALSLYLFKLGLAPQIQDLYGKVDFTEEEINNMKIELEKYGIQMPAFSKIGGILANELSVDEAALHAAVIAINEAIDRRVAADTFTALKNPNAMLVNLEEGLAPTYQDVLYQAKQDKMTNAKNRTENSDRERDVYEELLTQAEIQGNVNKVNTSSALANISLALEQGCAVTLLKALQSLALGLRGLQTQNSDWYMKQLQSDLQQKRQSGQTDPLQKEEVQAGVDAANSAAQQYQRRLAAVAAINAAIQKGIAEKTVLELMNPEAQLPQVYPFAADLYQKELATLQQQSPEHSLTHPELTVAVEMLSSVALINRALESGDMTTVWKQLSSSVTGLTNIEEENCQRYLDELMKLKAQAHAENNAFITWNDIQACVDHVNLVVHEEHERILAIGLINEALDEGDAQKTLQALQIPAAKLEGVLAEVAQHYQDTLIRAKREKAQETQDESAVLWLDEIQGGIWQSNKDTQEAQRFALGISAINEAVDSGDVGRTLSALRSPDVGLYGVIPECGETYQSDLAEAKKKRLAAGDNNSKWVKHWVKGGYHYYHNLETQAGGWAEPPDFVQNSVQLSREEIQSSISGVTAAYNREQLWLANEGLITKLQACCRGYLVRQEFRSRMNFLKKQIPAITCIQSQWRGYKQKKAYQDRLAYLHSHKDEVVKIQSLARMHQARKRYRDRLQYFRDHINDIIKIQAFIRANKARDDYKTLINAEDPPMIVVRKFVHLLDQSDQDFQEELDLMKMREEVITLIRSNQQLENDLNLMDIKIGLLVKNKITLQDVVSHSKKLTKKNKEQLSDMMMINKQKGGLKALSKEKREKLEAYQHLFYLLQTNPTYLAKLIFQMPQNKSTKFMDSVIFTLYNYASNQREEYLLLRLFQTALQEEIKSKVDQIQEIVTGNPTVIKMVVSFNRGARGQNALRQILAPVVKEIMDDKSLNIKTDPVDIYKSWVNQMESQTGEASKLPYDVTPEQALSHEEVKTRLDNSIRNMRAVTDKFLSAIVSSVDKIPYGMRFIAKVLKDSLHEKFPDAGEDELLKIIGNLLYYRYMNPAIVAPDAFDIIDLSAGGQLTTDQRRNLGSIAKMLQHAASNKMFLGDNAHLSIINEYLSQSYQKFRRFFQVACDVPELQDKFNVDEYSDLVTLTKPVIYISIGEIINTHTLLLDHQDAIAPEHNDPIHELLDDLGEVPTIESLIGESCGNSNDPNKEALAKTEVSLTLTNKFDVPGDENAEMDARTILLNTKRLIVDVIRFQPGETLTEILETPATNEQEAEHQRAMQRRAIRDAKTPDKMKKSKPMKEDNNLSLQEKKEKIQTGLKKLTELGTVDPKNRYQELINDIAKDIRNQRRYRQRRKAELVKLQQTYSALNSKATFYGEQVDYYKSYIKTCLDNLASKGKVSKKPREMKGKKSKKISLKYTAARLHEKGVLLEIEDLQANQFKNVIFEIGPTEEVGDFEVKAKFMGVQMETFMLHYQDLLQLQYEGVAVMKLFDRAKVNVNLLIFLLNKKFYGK
UniProt Q7KZF4: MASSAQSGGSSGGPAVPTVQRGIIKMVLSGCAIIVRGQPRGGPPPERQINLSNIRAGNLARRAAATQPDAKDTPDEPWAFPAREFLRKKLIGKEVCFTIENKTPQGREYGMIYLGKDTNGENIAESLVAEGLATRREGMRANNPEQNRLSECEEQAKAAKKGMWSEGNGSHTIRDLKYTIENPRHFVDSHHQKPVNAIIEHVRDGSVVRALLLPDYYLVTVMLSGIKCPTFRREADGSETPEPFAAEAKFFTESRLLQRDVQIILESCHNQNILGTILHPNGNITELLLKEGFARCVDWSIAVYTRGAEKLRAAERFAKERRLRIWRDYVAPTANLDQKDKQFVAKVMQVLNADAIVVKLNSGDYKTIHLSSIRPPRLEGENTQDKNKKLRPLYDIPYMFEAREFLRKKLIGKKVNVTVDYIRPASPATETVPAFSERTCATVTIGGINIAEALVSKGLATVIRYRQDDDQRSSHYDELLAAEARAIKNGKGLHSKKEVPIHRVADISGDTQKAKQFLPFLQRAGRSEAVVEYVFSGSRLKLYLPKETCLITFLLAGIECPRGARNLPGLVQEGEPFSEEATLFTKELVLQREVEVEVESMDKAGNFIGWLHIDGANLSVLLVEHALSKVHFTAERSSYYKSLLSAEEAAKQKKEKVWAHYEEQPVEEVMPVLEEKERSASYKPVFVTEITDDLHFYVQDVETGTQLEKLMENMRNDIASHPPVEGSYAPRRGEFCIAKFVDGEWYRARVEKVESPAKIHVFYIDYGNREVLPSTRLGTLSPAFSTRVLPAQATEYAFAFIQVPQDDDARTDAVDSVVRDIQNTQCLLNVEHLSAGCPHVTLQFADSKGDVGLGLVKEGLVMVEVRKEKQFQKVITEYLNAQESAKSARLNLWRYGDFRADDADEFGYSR

Key:
[1] = biological target: T1, Asparagine endopeptidase (AEP) (mouse (endogenous in MEFs)) (UniProt O89017); assay: affinity purification with mass spectrometry; AEP immunoprecipitated from MEFs (IgG as control), silver-stained gel, bands excised, in-gel trypsin digestion, MS
T1 sequence: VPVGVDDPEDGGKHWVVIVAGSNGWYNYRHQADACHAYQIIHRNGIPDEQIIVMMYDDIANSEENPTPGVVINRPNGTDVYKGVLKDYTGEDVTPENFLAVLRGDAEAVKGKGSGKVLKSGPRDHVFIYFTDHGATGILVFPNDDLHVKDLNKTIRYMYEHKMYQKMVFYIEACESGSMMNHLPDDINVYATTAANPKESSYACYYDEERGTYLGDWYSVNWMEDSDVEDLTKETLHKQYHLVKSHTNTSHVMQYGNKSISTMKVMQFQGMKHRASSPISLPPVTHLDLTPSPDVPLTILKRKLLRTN

ZsGreen1-tagged tTmod3-C = biological target: T2, ZsGreen1-tagged tTmod3-C (UniProt Q9NYL9); assay: affinity purification with mass spectrometry; ZsGreen1-tagged tTmod3-C immunoprecipitated (IgG as control) from nuclear fractions of U87-MG cells with AEP KD and tTmod3-C rescue, silver-stained gel, MS
T2 sequence: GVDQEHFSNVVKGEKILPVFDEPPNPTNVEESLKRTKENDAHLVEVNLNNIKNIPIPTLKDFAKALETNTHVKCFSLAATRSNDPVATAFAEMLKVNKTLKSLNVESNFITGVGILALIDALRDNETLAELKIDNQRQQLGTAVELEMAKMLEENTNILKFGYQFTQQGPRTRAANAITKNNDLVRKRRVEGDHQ

Molecule: Cortactin (from UniProt Q60598 1-546)
binding [1]: binds

Molecule: IQ Motif Containing GTPase Activating Protein 1 (IQGAP1) (from UniProt Q9JKF1 1-1657)
binding [1]: binds

Continued, values first:

binding (ZsGreen1-tagged tTmod3-C): binds
Molecule: Staphylococcal Nuclease And Tudor Domain Containing 1 (SND1) (from UniProt Q7KZF4 1-910)

binding [1]: binds
B1: Tropomodulin-3 (Tmod3) (protein, UniProt Q9JHJ0 1-352)
chain: MALPFRKDLGDYKDLDEDELLGKLSESELKQLETVLDDLDPENALLPAGFRQKNQTSKSATGPFDRERLLSYLEKQALEHKDRDDYVPYTGEKKGKIFIPKQKPAQTLTEETISLDPELEEALTSASDTELCDLAAILGMHNLIADTPFCDVLGSSNGVNQERFPNVVKGEKILPVFDEPPNPTNVEESLKRIRENDARLVEVNLNNIKNIPIPTLKDFAKTLEANTHVKHFSLAATRSNDPVAVAFADMLKVNKTLKSLNMESNFITGAGVLALIDALRDNETLMELKIDNQRQQLGTSVELEMAKMLEENTNILKFGYQFTQQGPRTRAANAITKNNDLVRKRRIEGDHQ

No constants are given. Whether binding was seen depends on the method and setting. Binding seen in cells or lysates may run through a third protein. These calls come from enrichment with a bait or labelling near it, and not all partners need be listed. For some of these results: Sequences can lack the tags named with a protein. Each block holds one molecule with its values, some of them ahead of it.
